Assay results reported in the M2OR odorant receptor database.
This is a selection; strong and weak results do not stand in their true shares. The calls were merged from several studies; some rest on single wells. The list shows a part of the results.

Key:
Conditions in all cases: stereoisomer not certain
O13C5 = tested on: T1, O13C5
T1 sequence (whole entry): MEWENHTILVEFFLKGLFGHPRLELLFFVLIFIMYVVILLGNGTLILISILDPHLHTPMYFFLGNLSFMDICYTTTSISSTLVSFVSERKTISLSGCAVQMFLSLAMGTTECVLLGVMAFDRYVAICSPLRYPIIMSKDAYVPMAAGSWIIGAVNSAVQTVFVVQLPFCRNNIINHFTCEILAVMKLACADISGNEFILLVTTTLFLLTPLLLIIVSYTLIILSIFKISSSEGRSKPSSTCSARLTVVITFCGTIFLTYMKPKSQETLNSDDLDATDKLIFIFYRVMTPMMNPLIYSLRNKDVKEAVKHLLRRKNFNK
Summary of the method: (§1)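 Each entry records the cell line, G-protein, co-transfected protein and tags used. Methods varied with the source, often transient luciferase assays in mammalian cell lines. A receptor–molecule pair is called responsive (active) if the original authors judged its signal statistically different from baseline and non-responsive (inactive) otherwise.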

O13C7 = tested on: T2, O13C7
T2 sequence (whole entry): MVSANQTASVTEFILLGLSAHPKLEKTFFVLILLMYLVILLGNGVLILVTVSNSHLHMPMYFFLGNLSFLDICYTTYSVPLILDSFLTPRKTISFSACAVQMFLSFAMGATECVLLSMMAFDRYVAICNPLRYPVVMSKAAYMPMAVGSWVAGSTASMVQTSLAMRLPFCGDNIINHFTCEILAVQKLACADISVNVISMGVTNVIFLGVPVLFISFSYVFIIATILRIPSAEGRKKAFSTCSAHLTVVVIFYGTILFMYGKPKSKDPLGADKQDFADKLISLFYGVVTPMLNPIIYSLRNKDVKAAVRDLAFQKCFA
Summary of the method: as §1

O13C9 = tested on: T3, O13C9
T3 sequence (whole entry): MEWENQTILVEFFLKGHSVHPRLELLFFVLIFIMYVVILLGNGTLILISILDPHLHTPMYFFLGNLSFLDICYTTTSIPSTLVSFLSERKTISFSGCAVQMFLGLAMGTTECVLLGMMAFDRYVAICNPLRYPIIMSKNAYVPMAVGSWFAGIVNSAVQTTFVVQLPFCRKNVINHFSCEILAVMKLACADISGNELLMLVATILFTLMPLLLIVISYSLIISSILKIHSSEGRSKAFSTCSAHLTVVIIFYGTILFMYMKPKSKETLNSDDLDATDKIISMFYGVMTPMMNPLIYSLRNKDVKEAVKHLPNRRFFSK
Summary of the method: as §1

O13D1 [1] = tested on: T4, O13D1
T4 sequence (whole entry): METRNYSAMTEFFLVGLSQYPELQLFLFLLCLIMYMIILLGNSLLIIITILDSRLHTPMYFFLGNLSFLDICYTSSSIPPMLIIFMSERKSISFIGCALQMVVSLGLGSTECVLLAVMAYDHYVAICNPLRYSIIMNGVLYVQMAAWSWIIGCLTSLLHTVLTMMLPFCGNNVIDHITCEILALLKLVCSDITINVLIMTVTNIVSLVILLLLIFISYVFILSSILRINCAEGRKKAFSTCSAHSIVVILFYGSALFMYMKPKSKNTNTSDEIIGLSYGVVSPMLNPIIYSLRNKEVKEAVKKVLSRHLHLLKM
Summary of the method: as §1

O13D1 [2] = tested on: T5, O13D1; remark: listed apart in the source
T5 sequence (whole entry): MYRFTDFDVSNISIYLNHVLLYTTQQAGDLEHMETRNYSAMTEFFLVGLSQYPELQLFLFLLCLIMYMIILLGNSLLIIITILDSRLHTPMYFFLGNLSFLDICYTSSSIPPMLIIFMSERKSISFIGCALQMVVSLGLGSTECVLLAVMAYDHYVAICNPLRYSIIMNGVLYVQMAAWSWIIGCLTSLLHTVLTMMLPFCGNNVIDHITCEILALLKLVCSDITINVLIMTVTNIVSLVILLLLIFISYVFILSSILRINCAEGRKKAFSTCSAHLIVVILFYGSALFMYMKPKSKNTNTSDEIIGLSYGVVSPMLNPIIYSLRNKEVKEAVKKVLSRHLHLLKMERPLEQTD
Summary of the method: as §1

O13F1 = tested on: T6, O13F1
T6 sequence (whole entry): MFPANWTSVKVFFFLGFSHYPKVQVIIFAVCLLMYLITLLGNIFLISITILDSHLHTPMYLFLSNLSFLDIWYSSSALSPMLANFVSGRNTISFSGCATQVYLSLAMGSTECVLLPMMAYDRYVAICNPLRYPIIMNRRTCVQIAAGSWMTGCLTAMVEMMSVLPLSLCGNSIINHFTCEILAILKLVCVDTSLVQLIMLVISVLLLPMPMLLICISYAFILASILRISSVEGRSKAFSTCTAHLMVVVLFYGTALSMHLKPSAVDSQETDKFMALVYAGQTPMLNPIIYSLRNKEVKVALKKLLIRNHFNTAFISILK
Summary of the method: as §1

O13G1 = tested on: T7, O13G1
T7 sequence (whole entry): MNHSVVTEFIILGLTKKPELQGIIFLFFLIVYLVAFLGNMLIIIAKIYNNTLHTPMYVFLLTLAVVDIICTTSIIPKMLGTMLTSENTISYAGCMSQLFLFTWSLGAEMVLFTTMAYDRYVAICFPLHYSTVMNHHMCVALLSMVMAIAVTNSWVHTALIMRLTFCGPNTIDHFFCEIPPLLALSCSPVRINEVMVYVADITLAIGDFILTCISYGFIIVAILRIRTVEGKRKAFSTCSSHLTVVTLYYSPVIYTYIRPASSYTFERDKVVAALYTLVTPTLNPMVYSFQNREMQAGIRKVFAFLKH
Summary of the method: as §1

O13J1 = tested on: T8, O13J1
T8 sequence (whole entry): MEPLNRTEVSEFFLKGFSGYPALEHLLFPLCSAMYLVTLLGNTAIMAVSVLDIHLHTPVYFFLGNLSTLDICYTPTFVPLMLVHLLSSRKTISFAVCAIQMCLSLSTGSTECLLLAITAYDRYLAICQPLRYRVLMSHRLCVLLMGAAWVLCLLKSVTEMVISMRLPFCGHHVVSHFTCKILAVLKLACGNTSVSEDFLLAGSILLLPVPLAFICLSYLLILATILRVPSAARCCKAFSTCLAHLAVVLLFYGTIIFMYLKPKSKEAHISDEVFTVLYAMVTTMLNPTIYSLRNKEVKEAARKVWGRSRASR
Summary of the method: as §1

O14A2 = tested on: T9, O14A2
T9 sequence (whole entry): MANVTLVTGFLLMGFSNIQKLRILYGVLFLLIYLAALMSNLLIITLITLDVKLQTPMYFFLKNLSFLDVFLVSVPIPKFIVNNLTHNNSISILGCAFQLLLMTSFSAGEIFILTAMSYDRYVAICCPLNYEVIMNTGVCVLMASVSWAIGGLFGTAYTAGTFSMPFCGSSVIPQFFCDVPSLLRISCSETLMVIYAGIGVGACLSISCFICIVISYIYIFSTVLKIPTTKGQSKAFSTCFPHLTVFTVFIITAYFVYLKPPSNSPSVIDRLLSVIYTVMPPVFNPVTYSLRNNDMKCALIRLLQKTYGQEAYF
Summary of the method: as §1

O14AG = tested on: T10, O14AG
T10 sequence (whole entry): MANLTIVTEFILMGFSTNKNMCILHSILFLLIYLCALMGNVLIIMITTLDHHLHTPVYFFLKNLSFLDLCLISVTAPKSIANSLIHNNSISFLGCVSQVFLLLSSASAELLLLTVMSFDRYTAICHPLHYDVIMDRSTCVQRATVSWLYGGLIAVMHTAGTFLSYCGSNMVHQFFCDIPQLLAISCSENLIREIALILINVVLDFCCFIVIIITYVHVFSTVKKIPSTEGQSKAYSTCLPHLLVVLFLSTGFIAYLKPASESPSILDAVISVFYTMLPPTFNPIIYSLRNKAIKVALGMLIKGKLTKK
Summary of the method: as §1

O14CZ = tested on: T11, O14CZ
T11 sequence (whole entry): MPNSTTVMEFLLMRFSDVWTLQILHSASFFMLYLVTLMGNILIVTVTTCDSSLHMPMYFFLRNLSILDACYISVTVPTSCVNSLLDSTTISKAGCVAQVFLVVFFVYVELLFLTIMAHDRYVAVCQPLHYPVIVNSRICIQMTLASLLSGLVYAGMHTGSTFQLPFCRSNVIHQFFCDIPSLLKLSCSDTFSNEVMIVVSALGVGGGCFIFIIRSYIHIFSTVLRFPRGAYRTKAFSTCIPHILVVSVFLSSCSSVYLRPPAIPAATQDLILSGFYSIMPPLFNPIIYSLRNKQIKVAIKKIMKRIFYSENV
Summary of the method: as §1

O14I1 = tested on: T12, O14I1
T12 sequence (whole entry): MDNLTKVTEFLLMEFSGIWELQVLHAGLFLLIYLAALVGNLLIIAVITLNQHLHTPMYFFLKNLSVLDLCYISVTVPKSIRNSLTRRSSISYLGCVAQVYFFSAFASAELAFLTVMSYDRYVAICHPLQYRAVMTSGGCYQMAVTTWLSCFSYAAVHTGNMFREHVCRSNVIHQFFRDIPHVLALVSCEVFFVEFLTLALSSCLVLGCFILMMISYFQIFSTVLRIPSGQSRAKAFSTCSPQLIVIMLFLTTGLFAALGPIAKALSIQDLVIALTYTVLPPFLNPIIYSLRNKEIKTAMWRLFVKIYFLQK
Summary of the method: as §1

O14J1 = tested on: T13, O14J1
T13 sequence (whole entry): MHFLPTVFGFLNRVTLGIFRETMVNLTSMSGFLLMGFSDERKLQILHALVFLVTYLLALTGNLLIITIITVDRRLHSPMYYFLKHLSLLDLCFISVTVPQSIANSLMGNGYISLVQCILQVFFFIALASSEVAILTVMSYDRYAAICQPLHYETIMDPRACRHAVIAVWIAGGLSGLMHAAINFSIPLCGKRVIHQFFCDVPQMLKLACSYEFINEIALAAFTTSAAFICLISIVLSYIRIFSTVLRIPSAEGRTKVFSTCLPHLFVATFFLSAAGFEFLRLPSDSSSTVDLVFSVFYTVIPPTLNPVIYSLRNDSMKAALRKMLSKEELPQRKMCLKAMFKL
Summary of the method: as §1

O14K1 = tested on: T14, O14K1
T14 sequence (whole entry): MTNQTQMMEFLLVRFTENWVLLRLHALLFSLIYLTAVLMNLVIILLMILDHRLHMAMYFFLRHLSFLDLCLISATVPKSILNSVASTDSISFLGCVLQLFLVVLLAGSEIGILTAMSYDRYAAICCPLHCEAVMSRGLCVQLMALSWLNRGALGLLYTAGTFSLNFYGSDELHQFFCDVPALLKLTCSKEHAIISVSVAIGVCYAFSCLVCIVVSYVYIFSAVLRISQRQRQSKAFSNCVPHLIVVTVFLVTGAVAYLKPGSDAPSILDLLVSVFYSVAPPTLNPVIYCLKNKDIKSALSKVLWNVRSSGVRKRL
Summary of the method: as §1

O1440 [3] = tested on: T15, O1440
T15 sequence (whole entry): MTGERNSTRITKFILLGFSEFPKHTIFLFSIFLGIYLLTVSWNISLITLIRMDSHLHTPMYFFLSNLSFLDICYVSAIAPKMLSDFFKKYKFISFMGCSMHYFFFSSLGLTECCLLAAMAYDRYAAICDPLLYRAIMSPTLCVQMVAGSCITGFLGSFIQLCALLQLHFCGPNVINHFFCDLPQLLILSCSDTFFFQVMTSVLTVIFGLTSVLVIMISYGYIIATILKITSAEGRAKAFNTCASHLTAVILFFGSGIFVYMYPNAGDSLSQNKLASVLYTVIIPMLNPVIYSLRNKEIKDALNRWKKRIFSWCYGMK
Summary of the method: as §1

O1440 [4] = tested on: T16, O1440; remark: listed apart in the source
T16 sequence (whole entry): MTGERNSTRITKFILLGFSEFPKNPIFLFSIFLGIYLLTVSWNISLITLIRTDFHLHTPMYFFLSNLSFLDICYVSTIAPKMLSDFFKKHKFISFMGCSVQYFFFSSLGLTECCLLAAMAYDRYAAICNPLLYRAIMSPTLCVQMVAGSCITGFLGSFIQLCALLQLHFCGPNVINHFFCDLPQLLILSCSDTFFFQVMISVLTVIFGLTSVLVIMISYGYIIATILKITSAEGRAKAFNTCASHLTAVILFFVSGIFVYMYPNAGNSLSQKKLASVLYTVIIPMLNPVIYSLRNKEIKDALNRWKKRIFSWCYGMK
Summary of the method: as §1

SMILES | odorant receptor agonist call (O13C5) | odorant receptor agonist call (O13C7) | odorant receptor agonist call (O13C9) | odorant receptor agonist call (O13D1 [1]) | odorant receptor agonist call (O13D1 [2]) | odorant receptor agonist call (O13F1) | odorant receptor agonist call (O13G1) | odorant receptor agonist call (O13J1) | odorant receptor agonist call (O14A2) | odorant receptor agonist call (O14AG) | odorant receptor agonist call (O14CZ) | odorant receptor agonist call (O14I1) | odorant receptor agonist call (O14J1) | odorant receptor agonist call (O14K1) | odorant receptor agonist call (O1440 [3]) | odorant receptor agonist call (O1440 [4])
CC(=O)C(C)=O | inactive | inactive | inactive | inactive | inactive | inactive | inactive | inactive | inactive | inactive | inactive | inactive | inactive | inactive | – | –
CC12C=CCC1C1CCC3CC(=O)CCC3(C)C1CC2 (stereo not drawn) | inactive | inactive | inactive | inactive | inactive | inactive | inactive | inactive | inactive | inactive | inactive | inactive | inactive | inactive | – | –
O=C1CCCCCCCCCCCC(=O)OCCO1 | inactive | inactive | inactive | inactive | inactive | inactive | inactive | inactive | inactive | inactive | inactive | inactive | inactive | inactive | active | active
COC(=O)c1ccccc1O | inactive | inactive | inactive | inactive | inactive | inactive | inactive | inactive | inactive | inactive | inactive | inactive | inactive | inactive | – | –
CCCC(=O)O | inactive | inactive | inactive | inactive | inactive | inactive | inactive | inactive | inactive | inactive | inactive | inactive | inactive | inactive | – | –
CC1COCc2cc3c(cc21)C(C)(C)C(C)C3(C)C (stereo not drawn) | active | inactive | active | active | active | active | inactive | inactive | inactive | inactive | active | active | active | active | active | active
